Measured values reported in the supplement of paper PMC10849652.
The other results are listed elsewhere or left out.

Chains of the proteins cited; added tags and fusions are not shown. Lines headed by an entry give the natural chain unless they say otherwise; changes in a name come on top.
UniProt Q15544, whole entry, looked up: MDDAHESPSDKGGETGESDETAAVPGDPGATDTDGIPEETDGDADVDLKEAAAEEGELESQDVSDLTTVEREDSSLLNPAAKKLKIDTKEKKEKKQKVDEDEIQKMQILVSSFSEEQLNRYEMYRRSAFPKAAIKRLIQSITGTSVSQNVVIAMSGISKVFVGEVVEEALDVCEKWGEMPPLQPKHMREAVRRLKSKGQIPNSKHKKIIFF
UniProt Q1ZZU3: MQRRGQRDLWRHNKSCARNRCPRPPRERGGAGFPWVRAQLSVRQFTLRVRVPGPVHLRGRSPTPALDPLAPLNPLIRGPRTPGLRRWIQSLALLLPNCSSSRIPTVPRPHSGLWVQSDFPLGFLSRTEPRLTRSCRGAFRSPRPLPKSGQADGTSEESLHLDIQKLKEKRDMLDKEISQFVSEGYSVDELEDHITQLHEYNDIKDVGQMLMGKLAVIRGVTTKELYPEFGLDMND
UniProt Q6P1N9: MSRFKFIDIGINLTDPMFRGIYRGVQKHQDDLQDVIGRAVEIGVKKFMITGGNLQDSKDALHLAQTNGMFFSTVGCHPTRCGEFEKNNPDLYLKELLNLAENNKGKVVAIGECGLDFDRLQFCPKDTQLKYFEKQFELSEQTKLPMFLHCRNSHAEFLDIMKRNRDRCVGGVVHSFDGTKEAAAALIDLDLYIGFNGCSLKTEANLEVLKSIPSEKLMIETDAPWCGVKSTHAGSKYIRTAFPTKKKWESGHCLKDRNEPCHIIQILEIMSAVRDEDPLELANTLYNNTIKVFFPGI
UniProt Q13188: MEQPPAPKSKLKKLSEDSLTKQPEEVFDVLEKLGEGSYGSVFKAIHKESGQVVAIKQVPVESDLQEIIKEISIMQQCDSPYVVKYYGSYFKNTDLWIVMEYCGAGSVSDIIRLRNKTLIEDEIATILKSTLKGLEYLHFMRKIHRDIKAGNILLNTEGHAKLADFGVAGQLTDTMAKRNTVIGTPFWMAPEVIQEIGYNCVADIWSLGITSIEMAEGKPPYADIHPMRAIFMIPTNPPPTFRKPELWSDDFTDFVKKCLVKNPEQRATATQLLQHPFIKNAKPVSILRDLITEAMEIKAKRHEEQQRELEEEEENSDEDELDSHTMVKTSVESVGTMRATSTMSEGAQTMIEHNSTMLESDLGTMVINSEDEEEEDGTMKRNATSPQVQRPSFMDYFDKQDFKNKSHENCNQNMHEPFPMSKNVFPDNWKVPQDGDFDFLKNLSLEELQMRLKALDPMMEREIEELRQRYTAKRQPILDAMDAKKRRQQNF
UniProt Q6ZWJ1: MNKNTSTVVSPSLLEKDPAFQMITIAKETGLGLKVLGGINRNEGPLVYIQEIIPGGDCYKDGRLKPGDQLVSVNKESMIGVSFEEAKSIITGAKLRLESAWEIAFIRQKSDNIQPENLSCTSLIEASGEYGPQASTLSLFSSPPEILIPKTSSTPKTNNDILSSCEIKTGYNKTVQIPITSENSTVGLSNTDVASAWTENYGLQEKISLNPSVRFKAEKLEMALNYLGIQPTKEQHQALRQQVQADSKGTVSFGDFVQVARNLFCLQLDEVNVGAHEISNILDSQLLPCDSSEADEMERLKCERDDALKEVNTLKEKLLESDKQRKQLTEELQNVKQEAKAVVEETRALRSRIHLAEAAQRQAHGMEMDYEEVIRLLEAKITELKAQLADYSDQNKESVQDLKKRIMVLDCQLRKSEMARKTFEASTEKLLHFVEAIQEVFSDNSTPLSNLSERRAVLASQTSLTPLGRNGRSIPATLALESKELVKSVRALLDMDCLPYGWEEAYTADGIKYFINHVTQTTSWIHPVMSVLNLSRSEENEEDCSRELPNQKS
UniProt Q96C24: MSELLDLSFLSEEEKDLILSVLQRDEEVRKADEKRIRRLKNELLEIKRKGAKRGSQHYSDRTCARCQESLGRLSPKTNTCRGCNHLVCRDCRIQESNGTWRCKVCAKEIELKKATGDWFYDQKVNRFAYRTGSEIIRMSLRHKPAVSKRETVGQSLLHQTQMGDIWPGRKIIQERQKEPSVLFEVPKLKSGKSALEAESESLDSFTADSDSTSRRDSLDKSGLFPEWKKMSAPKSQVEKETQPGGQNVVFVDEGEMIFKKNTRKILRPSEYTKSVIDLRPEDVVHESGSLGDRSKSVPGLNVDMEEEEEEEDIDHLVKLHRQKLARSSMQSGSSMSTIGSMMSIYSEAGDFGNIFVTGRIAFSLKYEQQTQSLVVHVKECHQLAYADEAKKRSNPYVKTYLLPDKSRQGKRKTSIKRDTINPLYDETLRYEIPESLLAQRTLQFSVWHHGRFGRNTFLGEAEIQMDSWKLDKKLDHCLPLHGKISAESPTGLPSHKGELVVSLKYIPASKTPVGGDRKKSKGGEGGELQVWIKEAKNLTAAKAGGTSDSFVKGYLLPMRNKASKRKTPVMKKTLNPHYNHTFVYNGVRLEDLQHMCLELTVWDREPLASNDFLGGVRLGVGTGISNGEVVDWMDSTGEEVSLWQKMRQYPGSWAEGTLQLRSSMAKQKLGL
UniProt O43759: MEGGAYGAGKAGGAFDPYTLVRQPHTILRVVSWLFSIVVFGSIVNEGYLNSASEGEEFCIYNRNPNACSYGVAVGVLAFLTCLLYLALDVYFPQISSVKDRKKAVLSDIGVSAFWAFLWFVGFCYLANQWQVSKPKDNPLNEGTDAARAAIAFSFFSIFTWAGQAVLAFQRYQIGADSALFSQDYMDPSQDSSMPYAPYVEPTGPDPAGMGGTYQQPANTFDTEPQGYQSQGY
UniProt Q8WXE9: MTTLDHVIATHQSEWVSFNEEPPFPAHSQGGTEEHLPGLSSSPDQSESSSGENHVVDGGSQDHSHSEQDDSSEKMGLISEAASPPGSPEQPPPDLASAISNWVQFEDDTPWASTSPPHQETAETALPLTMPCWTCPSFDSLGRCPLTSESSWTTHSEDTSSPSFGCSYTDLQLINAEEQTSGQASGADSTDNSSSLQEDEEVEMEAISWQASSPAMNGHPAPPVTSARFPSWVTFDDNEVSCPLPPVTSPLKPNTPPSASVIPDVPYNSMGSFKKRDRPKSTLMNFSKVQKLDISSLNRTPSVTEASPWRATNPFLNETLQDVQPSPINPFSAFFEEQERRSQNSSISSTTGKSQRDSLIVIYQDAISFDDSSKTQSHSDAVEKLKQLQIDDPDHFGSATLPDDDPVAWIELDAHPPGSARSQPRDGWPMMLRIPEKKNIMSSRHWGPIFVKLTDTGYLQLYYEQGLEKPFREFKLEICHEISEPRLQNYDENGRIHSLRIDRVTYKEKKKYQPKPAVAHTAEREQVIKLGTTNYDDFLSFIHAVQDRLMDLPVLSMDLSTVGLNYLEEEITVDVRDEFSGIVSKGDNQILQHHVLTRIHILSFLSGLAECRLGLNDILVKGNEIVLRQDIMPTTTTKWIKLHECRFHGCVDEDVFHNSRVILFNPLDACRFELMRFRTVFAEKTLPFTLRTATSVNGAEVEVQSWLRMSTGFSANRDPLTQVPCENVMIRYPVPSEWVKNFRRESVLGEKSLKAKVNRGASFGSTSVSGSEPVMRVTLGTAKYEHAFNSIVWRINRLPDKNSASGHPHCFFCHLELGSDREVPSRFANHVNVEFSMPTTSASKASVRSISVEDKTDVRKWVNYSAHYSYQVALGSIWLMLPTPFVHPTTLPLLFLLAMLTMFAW
UniProt Q9UI15: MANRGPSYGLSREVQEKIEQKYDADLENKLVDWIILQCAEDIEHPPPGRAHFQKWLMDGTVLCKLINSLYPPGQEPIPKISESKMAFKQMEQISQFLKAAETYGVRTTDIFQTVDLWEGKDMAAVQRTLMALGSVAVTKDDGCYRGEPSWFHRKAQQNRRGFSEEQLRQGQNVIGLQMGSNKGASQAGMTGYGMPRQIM
UniProt P49888: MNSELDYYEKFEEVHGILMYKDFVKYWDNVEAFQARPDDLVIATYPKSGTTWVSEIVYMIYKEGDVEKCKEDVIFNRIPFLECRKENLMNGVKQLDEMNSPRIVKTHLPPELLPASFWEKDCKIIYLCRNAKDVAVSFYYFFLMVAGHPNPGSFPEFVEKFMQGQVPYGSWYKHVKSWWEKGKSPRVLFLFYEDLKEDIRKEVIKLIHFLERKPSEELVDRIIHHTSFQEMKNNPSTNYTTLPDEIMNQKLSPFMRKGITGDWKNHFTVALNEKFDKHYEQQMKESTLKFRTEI
UniProt Q15543, whole entry, looked up: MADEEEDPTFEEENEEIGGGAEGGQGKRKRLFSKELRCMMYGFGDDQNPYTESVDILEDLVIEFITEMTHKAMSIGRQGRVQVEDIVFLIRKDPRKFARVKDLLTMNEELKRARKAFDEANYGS
UniProt O94864: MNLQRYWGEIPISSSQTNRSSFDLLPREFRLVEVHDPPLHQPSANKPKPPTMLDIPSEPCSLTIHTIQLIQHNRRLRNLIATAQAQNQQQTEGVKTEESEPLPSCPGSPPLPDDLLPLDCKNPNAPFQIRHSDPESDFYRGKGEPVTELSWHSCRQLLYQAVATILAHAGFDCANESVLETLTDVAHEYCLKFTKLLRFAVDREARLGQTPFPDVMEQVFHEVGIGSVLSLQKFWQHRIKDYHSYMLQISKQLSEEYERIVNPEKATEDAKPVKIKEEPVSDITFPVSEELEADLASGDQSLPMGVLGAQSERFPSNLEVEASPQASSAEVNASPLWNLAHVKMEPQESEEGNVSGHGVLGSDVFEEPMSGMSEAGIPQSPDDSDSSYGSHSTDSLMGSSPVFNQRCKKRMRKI
UniProt Q9UBI4: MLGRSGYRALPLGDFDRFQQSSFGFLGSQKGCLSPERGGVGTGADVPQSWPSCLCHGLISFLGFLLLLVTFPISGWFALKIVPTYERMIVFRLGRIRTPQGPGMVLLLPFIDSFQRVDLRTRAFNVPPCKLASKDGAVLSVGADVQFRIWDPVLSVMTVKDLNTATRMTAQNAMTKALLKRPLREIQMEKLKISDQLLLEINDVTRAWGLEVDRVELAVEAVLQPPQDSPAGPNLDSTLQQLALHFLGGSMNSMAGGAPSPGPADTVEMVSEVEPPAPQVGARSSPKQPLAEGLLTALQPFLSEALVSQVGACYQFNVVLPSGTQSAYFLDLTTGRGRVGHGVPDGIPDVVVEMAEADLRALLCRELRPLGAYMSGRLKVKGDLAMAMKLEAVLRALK

How the values were obtained:
Test in all cases: log2 fold change, soluble protein after heating vs DMSO (PISA); higher = thermal stabilisation; K562 cells, 10 uM, 30 min; active = over 0.2 and 3.5 SD of the protein, either way, in both replicates (recomputed)
volasertib = compound: CC[C@@H]1C(=O)N(C)c2cnc(Nc3ccc(C(=O)N[C@H]4CC[C@H](N5CCN(CC6CC6)CC5)CC4)cc3OC)nc2N1C(C)C [volasertib]
How it was run: (§1)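 Quantification of soluble protein used TMTpro 16plex LC-MS/MS, with channel sums equalised. Samples were the supernatant after 21,000xg for 90 min of pooled aliquots from K562 cells (2×10^6 cells/mL) treated with 10 μM compound for 30 min, heated for 3 min over 48°C-58°C, and extracted in PBS with 0.5% NP-40 at 4°C. Values, from duplicates, describe thermal stability against control samples on a log2 fold-change scale.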

[1] = compound: CCn1c(C(=O)N(C2CC2)C2CC2)cc2c3c(ncn3C)c(Nc3cc(C)n(C)n3)nc21
How it was run: as §1

[2] = compound: CCn1cc(-c2ccnc3[nH]c(-c4cccc(CN(C)C)c4)cc23)c(-c2ccc(NC(=O)N(C)C)cc2)n1
How it was run: as §1

rosiglitazone = compound: CN(CCOC1=CC=C(C=C1)C[C@H]2C(=O)NC(=O)S2)C3=CC=CC=N3 (racemic) [rosiglitazone]
How it was run: as §1

[3] = compound: CN1C2=C(C3=C1C(=O)N(N=C3)CC4=CC(=CC=C4)N)SC(=C2)S(=O)C
How it was run: as §1

[4] = compound: CN1CCC(CNc2ccc3ncc(-c4cccc(OC(F)(F)F)c4)n3n2)CC1
How it was run: as §1

saracatinib = compound: CN1CCN(CCOc2cc(OC3CCOCC3)c3c(Nc4c(Cl)ccc5c4OCO5)ncnc3c2)CC1 [saracatinib]
How it was run: as §1

sotrastaurin = compound: CN1CCN(c2nc(C3=C(c4c[nH]c5ccccc45)C(=O)NC3=O)c3ccccc3n2)CC1 [sotrastaurin]
How it was run: as §1

alvocidib = compound: CN1CC[C@H](c2c(O)cc(O)c3c(=O)cc(-c4ccccc4Cl)oc23)[C@H](O)C1 [alvocidib]
How it was run: as §1

Tubastatin A = compound: CN1CCc2c(c3ccccc3n2Cc2ccc(C(=O)NO)cc2)C1 [Tubastatin A]
How it was run: as §1

[5] = compound: CNC(=O)C1=CC=CC=C1NC2=NC(=NC=C2Cl)NC3=C(C=C(C=C3)N4CCOCC4)OC
How it was run: as §1

[6] = compound: CNc1nc(-c2ccc3c(N)n[nH]c3c2)cc(N2C[C@@H](C(=O)NC3CCCCC3)CC[C@H]2C)n1
How it was run: as §1

[7] = compound: CC[C@H](C)N1C=C(C2=C(C=C(C=C21)C3=CN=C(C=C3)N4CCNCC4)C(=O)NCC5=C(C=C(NC5=O)C)C)C
How it was run: as §1

epoxomicin = compound: CC[C@H](C)[C@@H](C(=O)N[C@@H]([C@@H](C)O)C(=O)N[C@@H](CC(C)C)C(=O)[C@]1(CO1)C)NC(=O)[C@H]([C@@H](C)CC)N(C)C(=O)C [epoxomicin]
How it was run: as §1

[8] = compound: CN(C)CC(=O)Nc1ccc2[nH]c(=O)c3ccccc3c2c1
How it was run: as §1

defactinib = compound: CNC(=O)c1ccc(Nc2ncc(C(F)(F)F)c(NCc3nccnc3N(C)S(C)(=O)=O)n2)cc1 [defactinib]
How it was run: as §1

[9] = compound: COC(=O)[C@H](CCSC)NC(=O)C1=C(C=C(C=C1)NC[C@H](CS)N)C2=CC=CC=C2
How it was run: as §1

rucaparib = compound: CNCc1ccc(-c2[nH]c3cc(F)cc4c3c2CCNC4=O)cc1 [rucaparib]
How it was run: as §1

encorafenib = compound: COC(=O)N[C@@H](C)CNc1nccc(-c2cn(C(C)C)nc2-c2cc(Cl)cc(NS(C)(=O)=O)c2F)n1 [encorafenib]
How it was run: as §1

[10] = compound: CC[C@@H]1C(=O)N(C)c2cnc(Nc3ccc(C(=O)NC4CCN(C)CC4)cc3OC)nc2N1C1CCCC1
How it was run: as §1

Measured: log2 fold change

TAF11 (UniProt Q15544)
inactive: volasertib 0.039 | [1] -0.088 | [2] 0.035 | rosiglitazone 0.009 | [3] 0.046 | [4] 0.002 | saracatinib 0.089 | sotrastaurin 0.068 | alvocidib 0.067 | Tubastatin A 0 | [5] -0.014 | [6] -0.11

SWI5 (UniProt Q1ZZU3)
inactive: volasertib -0.027 | [7] 0.131 | epoxomicin 0.115 | [1] 0.009 | [2] 0.029 | [8] 0.008 | rosiglitazone -0.129 | [3] 0.009 | [4] -0.219 | saracatinib -0.072 | sotrastaurin 0.032 | alvocidib 0.017 | [5] -0.076 | defactinib -0.076 | [6] -0.055 | [9] 0.097

TATDN1 isoform 2 (UniProt Q6P1N9)
inactive: volasertib 0.232 | [1] -0.135 | [5] -0.119

STK3 isoform 2 (UniProt Q13188)
inactive: volasertib 0.001 | [7] 0.02 | epoxomicin -0.002 | [1] 0.007 | [2] -0.005 | [8] 0.036 | rosiglitazone 0.034 | [3] -0.018 | [4] -0.013 | saracatinib 0.015 | sotrastaurin 0.028 | Tubastatin A -0.018 | defactinib -0.008 | rucaparib 0.035 | [6] -0.009 | encorafenib 0.015 | [9] 0.007

STXBP4 (UniProt Q6ZWJ1)
inactive: epoxomicin -0.166 | [8] -0.002 | defactinib 0.025 | [9] -0.065

TAF9B (UniProt Q9HBM6)
inactive: volasertib 0.084 | epoxomicin 0.041 | [1] 0.043 | [2] -0.027 | [8] -0.054 | rosiglitazone 0.073 | [3] -0.012 | [4] -0.104 | saracatinib 0.12 | sotrastaurin 0.161 | alvocidib 0.077 | Tubastatin A -0.123 | [5] 0.032 | defactinib 0.002 | [6] 0.135 | [9] 0.017

SYTL4 (UniProt Q96C24)
inactive: volasertib -0.048 | [7] 0.088 | epoxomicin 0.082 | [1] -0.032 | rosiglitazone 0.023 | [3] 0.089 | saracatinib -0.01 | sotrastaurin -0.173 | alvocidib -0.022 | Tubastatin A 0.122 | [5] -0.03 | [6] -0.028

SYNGR1 isoform 3 (UniProt O43759)
inactive: [10] 0.097 | Tubastatin A 0.138 | rucaparib -0.12 | encorafenib 0.236

STON2 isoform 3 (UniProt Q8WXE9)
inactive: [10] -0.042 | [7] -0.061 | [2] -0.064 | [4] 0.168 | Tubastatin A -0.198 | rucaparib -0.026 | encorafenib 0.076

TAGLN3 (UniProt Q9UI15)
inactive: epoxomicin -0.113 | [8] 0.022 | rosiglitazone 0.296 | [3] 0.045 | saracatinib -0.105 | sotrastaurin -0.015 | alvocidib 0.034 | Tubastatin A -0.052 | defactinib -0.002 | [6] 0 | [9] -0.096

SULT1E1 (UniProt P49888)
inactive: [7] 0.065 | [1] 0.073 | [2] -0.227 | rosiglitazone 0.127 | [4] 0.036 | [5] 0.14

TAF13 (UniProt Q15543)
inactive: epoxomicin 0.047 | [2] 0.229 | [8] -0.057 | [3] -0.063 | [4] 0.243 | saracatinib -0.03 | sotrastaurin -0.081 | Tubastatin A 0.157 | defactinib -0.039 | [6] -0.036 | [9] 0.012

Fetched one by one from the list above, 2 records:
STXBP4 (UniProt Q6ZWJ1)
inactive: epoxomicin -0.166 | [8] -0.002 | defactinib 0.025 | [9] -0.065

STK3 isoform 2 (UniProt Q13188)
inactive: volasertib 0.001 | [7] 0.02 | epoxomicin -0.002 | [1] 0.007 | [2] -0.005 | [8] 0.036 | rosiglitazone 0.034 | [3] -0.018 | [4] -0.013 | saracatinib 0.015 | sotrastaurin 0.028 | Tubastatin A -0.018 | defactinib -0.008 | rucaparib 0.035 | [6] -0.009 | encorafenib 0.015 | [9] 0.007

Continuation:

SUPT5H isoform 2 (UniProt O00267)
inactive: [8] 0.149 | defactinib -0.005 | [9] -0.058

SUPT7L (UniProt O94864)
inactive: [7] 0 | [1] 0.202 | rosiglitazone -0.057 | [5] 0.115

STOML1 (UniProt Q9UBI4)
inactive: [10] 0.038 | [8] -0.348 | Tubastatin A 0.125 | defactinib 0.096 | rucaparib -0.003 | encorafenib 0.009 | [9] -0.208
